Source: PubChem BioAssay AID1259425 (University of Nebraska Medical Center, 2018)
The deposit covers about 14,000 reagents; this is a random part of them. Not all columns of the deposit are shown. Not stated in the record: the time to read-out.

Assay: 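Find knockdowns that reproduce the gene expression pattern seen when KSR1 is lost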 (primary screen)
System: HCT116 human colon cancer cells
Reagent: siRNA pool against human genes, 50 nM siRNA
Measured: 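mRNA of six signature genes measured together by branched-DNA assay after 50 nM siRNA pool, blank removed, divided by geometric mean of two housekeeping genes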
Scale: BNIP3L mRNA: higher = more BNIP3L transcript after knockdown; NDRG1 mRNA: higher = more NDRG1 transcript after knockdown

BNIP3L mRNA, set 1 | NDRG1 mRNA, set 1 | gene knocked down
0.0901 | 0.224 | RPRD1B (regulation of nuclear pre-mRNA domain containing 1B)
0.0822 | 0.278 | OAS3 (2'-5'-oligoadenylate synthetase 3)
0.355 | 0.484 | ADGRG7 (adhesion G protein-coupled receptor G7)
0.0868 | 0.106 | DAZAP1 (DAZ associated protein 1)
0.181 | 0.236 | DNAJB6 (DnaJ heat shock protein family (Hsp40) member B6)
0.0845 | 0.17 | TBX18 (T-box transcription factor 18)
0.109 | 1.01 | RASSF8 (Ras association domain family member 8)
0.112 | 0.205 | HS3ST2 (heparan sulfate-glucosamine 3-sulfotransferase 2)
0.18 | 0.389 | GARIN1B (golgi associated RAB2 interactor 1B)
0.197 | 0.166 | GPRC5B (G protein-coupled receptor class C group 5 member B)
0.0937 | 0.212 | TRMT11 (tRNA methyltransferase 11)
0.0881 | 0.687 | S100A1 (S100 calcium binding protein A1)
0.0967 | 0.0926 | PHLDA3 (pleckstrin homology like domain family A member 3)
0.0818 | 0.118 | ADCK1 (aarF domain containing kinase 1)
0.143 | 0.44 | GRAMD4 (GRAM domain containing 4)
0.11 | 0.108 | RABL2B (RAB, member of RAS oncogene family like 2B)
0.23 | 0.14 | UBAP2L (ubiquitin associated protein 2 like)
0.0705 | 0.231 | RNF25 (ring finger protein 25)
0.0853 | 0.0609 | MAPRE2 (microtubule associated protein RP/EB family member 2)
0.0475 | 0.425 | SERF2 (small EDRK-rich factor 2)

An excerpt of the results above, for reference:
BNIP3L mRNA, set 1 | NDRG1 mRNA, set 1 | gene knocked down
0.0868 | 0.106 | DAZAP1 (DAZ associated protein 1)
0.181 | 0.236 | DNAJB6 (DnaJ heat shock protein family (Hsp40) member B6)
0.0845 | 0.17 | TBX18 (T-box transcription factor 18)
0.109 | 1.01 | RASSF8 (Ras association domain family member 8)

More results:
BNIP3L mRNA, set 1 | NDRG1 mRNA, set 1 | gene knocked down
0.109 | 0.32 | RPS6KL1 (ribosomal protein S6 kinase like 1)
0.218 | 0.422 | PGA5 (pepsinogen A5)
0.126 | 0.105 | DNTTIP2 (deoxynucleotidyltransferase terminal interacting protein 2)
0.195 | 0.266 | ASPHD2 (aspartate beta-hydroxylase domain containing 2)
0.098 | 0.107 | FHIP2A (FHF complex subunit HOOK interacting protein 2A)
0.276 | 0.475 | METTL25B (methyltransferase like 25B)
0.101 | 0.127 | SERPINB2 (serpin family B member 2)
0.0482 | 0.576 | IFT57 (intraflagellar transport 57)
0.149 | 0.842 | POLR1C (RNA polymerase I and III subunit C)
0.0967 | 0.329 | RABGAP1L (RAB GTPase activating protein 1 like)
0.179 | 0.196 | RIMBP3 (RIMS binding protein 3)
0.0504 | 0.0587 | CD200 (CD200 molecule)
0.103 | 0.0974 | GSTCD (glutathione S-transferase C-terminal domain containing)
0.0997 | 0.138 | CHMP1B (charged multivesicular body protein 1B)
0.185 | 0.225 | DISP3 (dispatched RND transporter family member 3)
0.157 | 0.18 | GSTP1 (glutathione S-transferase pi 1)
0.0813 | 0.105 | MRPS10 (mitochondrial ribosomal protein S10)
0.092 | 0.111 | CCAR2 (cell cycle and apoptosis regulator 2)
0.0857 | 0.0959 | RIOX2 (ribosomal oxygenase 2)
0.257 | 0.228 | CHERP (calcium homeostasis endoplasmic reticulum protein)
0.0898 | 0.0824 | BAGE (B melanoma antigen)
0.0684 | 0.202 | EPHX3 (epoxide hydrolase 3)
0.134 | 0.147 | DHX32 (DEAH-box helicase 32 (putative))
0.0978 | 0.186 | CDR1 (cerebellar degeneration related 1)
0.0856 | 0.545 | USPL1 (ubiquitin specific peptidase like 1)
0.103 | 0.126 | NLRP9 (NLR family pyrin domain containing 9)
0.124 | 0.188 | WDR11 (WD repeat domain 11)
0.137 | 0.322 | P2RY12 (purinergic receptor P2Y12)
0.14 | 0.381 | PARN (poly(A)-specific ribonuclease)
0.104 | 0.242 | MAPKAPK5 (MAPK activated protein kinase 5)
